The target of this assay is human PILRA on Wildtype iMicroglia (Homo sapiens) (UniProt Q9UKJ1). The assay can be described thus: confocal imaging of cell binding on wild-type iMicroglia, 100 nM biotinylated antibody, Alexa Fluor 488 streptavidin, fold over streptavidin-only wells.

Sequences of proteins named here, by UniProt entry; tags and fusion partners are left off. A change or cut given only in a name is not applied to a line headed by its entry.
UniProt Q9UKJ1: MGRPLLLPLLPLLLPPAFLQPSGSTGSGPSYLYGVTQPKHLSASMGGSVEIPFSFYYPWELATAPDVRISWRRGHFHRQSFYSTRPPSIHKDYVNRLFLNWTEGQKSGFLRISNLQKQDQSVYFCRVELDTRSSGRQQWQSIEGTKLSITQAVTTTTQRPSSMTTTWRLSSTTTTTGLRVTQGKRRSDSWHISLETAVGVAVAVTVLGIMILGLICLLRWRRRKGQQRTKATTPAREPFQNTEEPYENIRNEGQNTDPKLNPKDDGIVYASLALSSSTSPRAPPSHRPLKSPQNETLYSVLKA

From patent US20260109763A1, “ANTI-PILRA ANTIBODIES, USES THEREOF, AND RELATED METHODS AND REAGENTS” (DENALI THERAPEUTICS INC., priority 2021, published 2026) come the findings set out here.

Results are given in words; binding and its absence hold for the method and conditions named. Binding can be weak; no strength is given.

B1: Anti-PILRA antibody clone 1 (antibody, V domains shown)
VH: EVQLVESGGGLVQPGRSLRLSCAVSGFTFDDYAMHWVRQAPGKGLEWVSGFSWNSGSIGYPDSVKGRFTISRDNAKNSLYLQMNSLRAEDTAFYYCAKDKSISAAGRFDYWGQGTLVTVSS
VL: DIQMTQSPSSLSASVGDRVTITCQASRRINNYLNWYQQKPGKAPKLLIYDASNLETGVPSRFTGSGSGTDFTLTISSLQPEDIATYYCQQYDNLPLTFGGGTKIKIK
As to B1, the binding entry is given as “binds”.

B2: Anti-PILRA antibody clone 2 (antibody, human IgG1, kappa, L234A L235A, V domains shown)
VH: B1 VH
VL: DIQMTQSPSSLSASVGDRVTITCQASRRINNYLNWYQQKPGKAPKLLIYDASNLETGVPSRFTGSGSGTDFTLTISSLQPEDIATYYCQQYDNLPLTFGGGTKVEIKR
For B2, the binding result was “binds”.
